{"source": "paper PMC10534853", "key": {"[1]": {"target": "p53 (Flag-p53) (not stated (cDNA from 'the cells'; the paper's cells, HEK-293T and HeLa, are human)) (UniProt P04637)", "assay": "co-IP"}, "[2]": {"target": "Brucella effector protein BspF (HA-BspF) (Brucella abortus) (UniProt Q2YLT8)", "assay": "co-IP"}}, "note": "Results are given in words; binding and its absence hold for the method and conditions named. Binding seen in cells or lysates may run through a third protein. Binding can be weak; no strength is given.", "data": [{"substance": "Brucella effector protein BspF (HA-BspF) (from UniProt Q2YLT8)", "values": [{"measurement": "binding", "setting": "[1]", "result": "binds"}]}, {"substance": "p53 (Flag-p53) (from UniProt P04637 1-393)", "values": [{"measurement": "binding", "setting": "[2]", "result": "binds"}]}]}
